Assay results: article PMC3945108

By UniProt entry, the sequences of proteins in these tests, tags left out. Where a name states a change or a piece, a line headed by the entry shows the natural chain unless it says otherwise.
UniProt Q8I7F8: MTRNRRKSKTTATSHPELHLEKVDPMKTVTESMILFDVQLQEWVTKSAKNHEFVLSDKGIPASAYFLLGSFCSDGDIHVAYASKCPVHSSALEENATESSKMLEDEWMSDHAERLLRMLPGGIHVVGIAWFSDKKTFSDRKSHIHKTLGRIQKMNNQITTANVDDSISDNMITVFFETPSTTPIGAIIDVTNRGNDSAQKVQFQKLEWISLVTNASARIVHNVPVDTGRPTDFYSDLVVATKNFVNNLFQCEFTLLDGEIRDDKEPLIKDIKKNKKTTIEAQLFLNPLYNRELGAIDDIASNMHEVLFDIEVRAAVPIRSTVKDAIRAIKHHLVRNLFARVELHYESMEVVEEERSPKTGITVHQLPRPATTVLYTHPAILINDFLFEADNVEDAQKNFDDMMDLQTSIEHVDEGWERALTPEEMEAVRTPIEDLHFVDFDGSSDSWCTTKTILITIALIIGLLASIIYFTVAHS

T1: HA-ODR-8 (C. elegans Ufm1-specific protease 2) (C. elegans) (UniProt Q94218)
T1 sequence: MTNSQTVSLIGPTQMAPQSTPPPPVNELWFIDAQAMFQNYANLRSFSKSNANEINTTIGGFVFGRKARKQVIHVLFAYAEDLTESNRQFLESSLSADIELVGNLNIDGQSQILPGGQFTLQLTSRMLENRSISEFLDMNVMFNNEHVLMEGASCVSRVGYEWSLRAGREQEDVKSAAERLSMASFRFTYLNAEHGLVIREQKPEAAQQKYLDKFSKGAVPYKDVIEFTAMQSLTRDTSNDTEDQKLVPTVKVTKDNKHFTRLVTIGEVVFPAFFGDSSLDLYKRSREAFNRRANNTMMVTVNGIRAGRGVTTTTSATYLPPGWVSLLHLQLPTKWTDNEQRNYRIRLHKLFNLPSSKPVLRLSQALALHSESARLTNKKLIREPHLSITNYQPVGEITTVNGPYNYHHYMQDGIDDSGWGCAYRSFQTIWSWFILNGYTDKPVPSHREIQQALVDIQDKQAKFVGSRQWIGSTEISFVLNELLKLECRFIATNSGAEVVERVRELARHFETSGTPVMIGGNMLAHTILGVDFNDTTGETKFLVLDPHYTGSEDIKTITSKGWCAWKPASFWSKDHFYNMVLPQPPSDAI


Experiments:
Experiment in all cases: co-IP; HEK293 cells co-transfected; lysis in 50 mM Tris-HCl pH 7.5, 150 mM NaCl, 1% Triton X-100; IP with anti-Flag M2 affinity gel or anti-HA agarose; five washes in 50 mM Tris-HCl pH 7.5, 150 mM NaCl, 1 mM EDTA, 1% Triton X-100; immunoblot with anti-GFP, anti-Flag M2, anti-HA
[1] = biological target: T1, HA-ODR-8 (C. elegans Ufm1-specific protease 2) (C. elegans)
[2] = biological target: ODR-4b-FLAG (C. elegans)
[3] = biological target: ODR-4a-FLAG (C. elegans) (UniProt Q8I7F8)

Row | Molecule | binding [1] | binding [2] | binding [3]
1 | ODR-4a-FLAG (from UniProt Q8I7F8-2) | binds |  | 
2 | ODR-4b-FLAG (C. elegans) | binds |  | 
3 | HA-ODR-8 (C. elegans Ufm1-specific protease 2) (enzyme, UniProt Q94218 1-589) MTNSQTVSLIGPTQMAPQSTPPPPVNELWFIDAQAMFQNYANLRSFSKSNANEINTTIGGFVFGRKARKQVIHVLFAYAEDLTESNRQFLESSLSADIELVGNLNIDGQSQILPGGQFTLQLTSRMLENRSISEFLDMNVMFNNEHVLMEGASCVSRVGYEWSLRAGREQEDVKSAAERLSMASFRFTYLNAEHGLVIREQKPEAAQQKYLDKFSKGAVPYKDVIEFTAMQSLTRDTSNDTEDQKLVPTVKVTKDNKHFTRLVTIGEVVFPAFFGDSSLDLYKRSREAFNRRANNTMMVTVNGIRAGRGVTTTTSATYLPPGWVSLLHLQLPTKWTDNEQRNYRIRLHKLFNLPSSKPVLRLSQALALHSESARLTNKKLIREPHLSITNYQPVGEITTVNGPYNYHHYMQDGIDDSGWGCAYRSFQTIWSWFILNGYTDKPVPSHREIQQALVDIQDKQAKFVGSRQWIGSTEISFVLNELLKLECRFIATNSGAEVVERVRELARHFETSGTPVMIGGNMLAHTILGVDFNDTTGETKFLVLDPHYTGSEDIKTITSKGWCAWKPASFWSKDHFYNMVLPQPPSDAI |  | binds | binds

No constants are given. Whether binding was seen depends on the method and setting. Binding seen in cells or lysates may run through a third protein. A result given as binding can be weak or reduced; the word gives no strength. Where a sequence is shown, tags or fusion partners need not be part of it.
